According to paper PMC3480639:
These are yes or no findings as the source states them, for the method shown. For part of these data: In cells and extracts the contact can be indirect. Some results given as binding are weak or reduced against the parent protein; the word gives no strength. For part of these data: Sequences can lack the tags named with a protein. Values belong to the binder of their own block, whether it stands above or below them.

By UniProt entry, the sequences of proteins in these tests, tags left out.
UniProt Q14974: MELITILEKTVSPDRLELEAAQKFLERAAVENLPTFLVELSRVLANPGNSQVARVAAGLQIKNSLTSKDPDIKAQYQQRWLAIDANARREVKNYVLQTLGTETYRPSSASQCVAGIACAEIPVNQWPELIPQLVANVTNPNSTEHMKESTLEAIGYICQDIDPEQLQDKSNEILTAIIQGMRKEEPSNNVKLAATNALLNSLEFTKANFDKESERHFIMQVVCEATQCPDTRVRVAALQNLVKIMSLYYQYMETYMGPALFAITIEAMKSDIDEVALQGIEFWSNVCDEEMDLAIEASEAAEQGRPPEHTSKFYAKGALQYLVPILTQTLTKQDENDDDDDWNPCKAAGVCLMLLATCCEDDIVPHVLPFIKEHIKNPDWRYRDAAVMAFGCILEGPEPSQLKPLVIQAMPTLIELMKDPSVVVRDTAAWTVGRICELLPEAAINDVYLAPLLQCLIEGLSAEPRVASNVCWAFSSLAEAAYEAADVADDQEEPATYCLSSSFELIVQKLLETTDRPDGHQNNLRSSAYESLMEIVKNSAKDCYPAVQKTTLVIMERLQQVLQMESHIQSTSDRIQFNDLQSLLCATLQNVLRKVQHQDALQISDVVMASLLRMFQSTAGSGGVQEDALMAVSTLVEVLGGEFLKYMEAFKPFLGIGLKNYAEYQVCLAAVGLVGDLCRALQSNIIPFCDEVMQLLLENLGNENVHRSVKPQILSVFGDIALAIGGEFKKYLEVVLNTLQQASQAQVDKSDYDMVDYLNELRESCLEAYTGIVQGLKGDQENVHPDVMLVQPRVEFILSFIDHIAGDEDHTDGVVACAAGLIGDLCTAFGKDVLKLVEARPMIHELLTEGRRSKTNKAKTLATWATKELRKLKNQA

What was measured:
[1] = biological target: His-tagged Importin β (UniProt Q14974); experiment: pull-down; His-Importin β on TALON (Ni) beads incubated with GST-Repo-Man^1–135 for 1 hr at 4°C in 20 mM HEPES pH 7.4, 110 mM K acetate, 2 mM Mg acetate, 0.2 mM DTT; SDS-PAGE, Coomassie (and autoradiograph for the phosphorylated protein); both purified
[2] = biological target: His-tagged Importin β (UniProt Q14974); experiment: pull-down; data not shown: in vitro binding of bacterially expressed full-length Repo-Man to His-Importin β
[3] = biological target: T1, dsRed-BAF (UniProt O75531); experiment: FRET or BRET; FLIM-FRET in cells in interphase; GFP fusion as donor, mRFP or dsRed fusion as acceptor; multiphoton excitation at 890 nm; at least 20 cells per condition
T1 sequence: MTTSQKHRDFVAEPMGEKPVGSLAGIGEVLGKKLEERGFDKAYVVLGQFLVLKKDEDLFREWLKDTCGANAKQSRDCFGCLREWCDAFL

- binding [1]: binds
B1: GST-Repo-Man^1–135 (domain or fragment, UniProt Q69YH5 1-135)
chain: MDANSKDKPPETKESAMNNAGNASFILGTGKIVTPQKHAELPPNPCTPDTFKSPLNFSTVTVEQLGITPESFVRNSAGKSSSYLKKCRRRSAVGARGSPETNHLIRFIARQQNIKNARKSPLAQDSPSQGSPALY

- binding [2]: binds
B2: full-length Repo-Man expressed in bacteria (protein, UniProt Q69YH5 1-1023)
chain: MDANSKDKPPETKESAMNNAGNASFILGTGKIVTPQKHAELPPNPCTPDTFKSPLNFSTVTVEQLGITPESFVRNSAGKSSSYLKKCRRRSAVGARGSPETNHLIRFIARQQNIKNARKSPLAQDSPSQGSPALYRNVNTLRERISAFQSAFHSIKENEKMTGCLEFSEAGKESEMTDLTRKEGLSACQQSGFPAVLSSKRRRISYQRDSDENLTDAEGKVIGLQIFNIDTDRACAVETSVDLSEISSKLGSTQSGFLVEESLPLSELTETSNALKVADCVVGKGSSDAVSPDTFTAEVSSDAVPDVRSPATPACRRDLPTPKTFVLRSVLKKPSVKMCLESLQEHCNNLYDDDGTHPSLISNLPNCCKEKEAEDEENFEAPAFLNMRKRKRVTFGEDLSPEVFDESLPANTPLRKGGTPVCKKDFSGLSSLLLEQSPVPEPLPQPDFDDKGENLENIEPLQVSFAVLSSPNKSSISETLSGTDTFSSSNNHEKISSPKVGRITRTSNRRNQLVSVVEESVCNLLNTEVQPCKEKKINRRKSQETKCTKRALPKKSQVLKSCRKKKGKGKKSVQKSLYGERDIASKKPLLSPIPELPEVPEMTPSIPSIRRLGSGYFSSNGKLEEVKTPKNPVKRKDLLRHDPDLHMHQGYDKYDVSEFCSYIKSSSSLGNATSDEDPNTNIMNINENKNIPKAKNKSESENEPKAGTDSPVSCASVTEERVASDSPKPALTLQQGQEFSAGGQNAENLCQFFKISPDLNIKCERKDDFLGAAEGKLQCNRLMPNSQKDCHCLGDVLIENTKESKSQSEDLGRKPMESSSVVSCRDRKDRRRSMCYSDGRSLHLEKNGNHTPSSSVGSSVEISLENSELFKDLSDAIEQTFQRRNSETKVRRSTRLQKDLENEGLVWISLPLPSTSQKAKRRTICTFDSSGFESMSPIKETVSSRQKPQMAPPVSDPENSQGPAAGSSDEPGKRRKSFCISTLANTKATSQFKGYRRRSSLNGKGESSLTALERIEHNGERKQ

- binding [3]: no binding
B3: GFP:Repo-Man (protein, UniProt Q69YH5 1-1023)
chain: B2 chain
